Results of single-concentration screens

Results are given as percent effect.
How 0% and 100% were set is not recorded. Most values in the screen are low, and negative values occur.
This is an unselected part of the compounds tested.
A dash means the value is not listed here; it may have been measured.

A: 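Whole-parasite assay of Trypanosoma brucei over 72 hours; the read-out is not stated. Tested at 30 µM. Direction is inferred from retests: higher values go with stronger inhibition. Values scatter widely below zero; nearly all retest evidence comes from the higher of the two concentrations used. About 64,000 compounds were tested under these conditions; 1.5% (about 940) showed 50% or more at least once.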
B: 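Assay of Toxoplasma gondii numbers, read through their beta-galactosidase reporter with a colour substrate. Tested at 10 µM. The record gives no direction; the compounds picked for IC50 retests had high values, so higher reads as fewer parasites. Of about 67,000 compounds tested this way, about 260 (0.38%) reached 50% or more in at least one test.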

Compound	A	B
Cc1ccc(OCC2CCCN(Cc3ccc(CO)o3)C2)cc1 (centres undefined)	-89.29	12.36
CCN(CC)c1ncc(S(=O)(=O)c2cccc(C)c2)c(N)n1	2.277	7.388
Cc1ccsc1CN1CCc2c(nc(N3CCCCC3C)[nH]c2=O)C1 (centres undefined)	-18.41	-4.51
O=C(O)C(F)(F)F.O=C(O)C(F)(F)F.[H][C@@]12CCN(C(=O)c3cnn(C)c3)[C@@]1([H])CCN2Cc1cccnc1	-	-2.959
Cc1nccn1-c1ccc(=O)n(CCNC(=O)c2cccs2)n1	4.504	-4.795
Cc1nnc(CN2CCCC2c2ccc(Cl)c(Cl)c2)o1 (centres undefined)	3.085	0.5066
CC(C)Cc1ccc(S(=O)(=O)Nc2ccc(=O)n(C)c2)cc1	4.601	-
CCN(C)S(=O)(=O)N[C@H]1CN(c2ccc(F)cn2)C[C@@H]1C(C)C	-58.04	8.495
CC(C)c1ocnc1C(=O)N1CCC2(CC1)OCCO2	-33.48	-1.643
CC1CN(c2ncnc3c2cnn3C)CCN1c1nccs1 (centres undefined)	-26.72	19.35
Cc1ccc(CN2CCN(c3ncccc3Cl)CC2CCO)cc1 (centres undefined)	1.099	-7.05
NCC1(c2cccc(C(F)(F)F)c2)CCC1	-3.034	-4.792
CN(C)c1cc(C(=O)N2CCN(c3cnccn3)CC2)ccn1	-6.613	-15.11
Cc1cc2[nH]c(=O)c(=O)[nH]c2cc1S(=O)(=O)NC1CCCCC1	-10.87	9.258
O=C1CCN(C(=O)NCCc2c[nH]c3ccc(Cl)cc23)CCN1	-35.02	9.982
CC(C)NC(=O)Nc1ccc(CNCc2cccc(C#N)c2)cc1	13.4	-3.671
CN1CCN(Cc2ccncc2)C(=O)C12CCN(Cc1ccsc1)CC2.O=C(O)C(F)(F)F.O=C(O)C(F)(F)F.O=C(O)C(F)(F)F	-53.7	-15.04
Cc1nc(C(=O)N2CCC(Nc3cccnn3)CC2)cs1	-34.03	1.477
Cc1cnn(CC2CN(Cc3nc(-c4ccco4)no3)CCO2)c1 (centres undefined)	-1.914	0.6947
Fc1ccc2nc([C@H]3CCNC3)[nH]c2c1	18.4	10.98
CCCc1nc(NCCCn2cccn2)c2c(n1)c(C)nn2CC	10.65	20.81
CC(=O)N1Cc2ccccc2C[C@H]1C(=O)Nc1ccccn1	-54.57	10.06
CCN(C(=O)COc1nc(Cc2ccc(F)cc2)no1)C1CC1	-0.6151	1.897
COC(C)c1noc(CN(C)c2ncccn2)n1 (centres undefined)	-29.44	-1.38
[H][C@@]12CS(=O)(=O)C[C@]1([H])N(Cc1cnn(-c3ccccc3Cl)c1)CCN2C	-42.58	-6.047
O=C(O)C(F)(F)F.[H][C@@]12CN(C)C[C@]1(C(=O)NCC1CC1)CCCN2c1ncccn1	-58.73	-8.603
OCCN(Cc1cccnc1)c1ccc(Br)cn1	-4.641	4.543
CN1CC(=O)N(c2cccc(F)c2)CC12CCN(Cc1ccncc1)C2.O=C(O)C(F)(F)F.O=C(O)C(F)(F)F (centres undefined)	-27.21	-1.129
O=C(c1ccc2[nH]cnc2c1)N1CCC(Oc2ccccn2)CC1	-17.31	-10.27
O=C(O)C(F)(F)F.[H][C@@]12COC[C@]1(CNS(C)(=O)=O)CN(CC1CCC1)C2	-80.79	-6.027
O=C1CC[C@H](C(=O)N(Cc2cccc(Br)c2)C2CC2)N1	7.793	-1.523
[H][C@]12CC[C@]([H])(CN(C(=O)CCS(C)(=O)=O)C1)N(Cc1ccccc1)C2=O	0.8233	-2.029
OCCN1CCN(Cc2cc3c(cc2Br)OCCO3)CC1	-80	-1.011
Cn1ccc(C(=O)Nc2nccn2Cc2ccccc2Cl)cc1=O	-11.29	-4.555
CN(c1nccc(-c2cnc3sccn3c2=O)n1)C1CCCCC1	-12.92	-1.814
COc1ccc(C(=O)N2C[C@@H](C(=O)O)[C@H](c3ccccc3)C2)c(O)c1	-15.78	6.435
CCc1cnc(CCNC(C)CC(=O)Nc2cccc(C)c2C)s1 (centres undefined)	9.187	2.841
CC(C#N)(NC(=O)Cn1cc(I)cn1)C1CC1 (centres undefined)	-29.95	0.6233
Cc1cnn(CC2CCCCN2CC(=O)Nc2nc(C)cs2)c1 (centres undefined)	17.16	-7.756
CN(C)Cc1cn(CC2CCCN(c3nccc4occc34)C2)nn1 (centres undefined)	8.851	-0.5618
[H][C@]12CC[C@]([H])(CC(=O)N(C)C1)N2C(=O)c1ccc(-c2ccccc2)[nH]c1=O	2.014	-19.69
COc1ccccc1C(C)(C)NC(=O)Nc1ccc(F)c(C(N)=O)c1	7.805	1.723
Cc1cc(C)nc(Nc2cncc(C3CCCN(S(C)(=O)=O)C3)n2)n1 (centres undefined)	-20.74	25.03
CC(=O)c1ccc(-n2ccc3nc(N4CCCC4)ncc3c2=O)cc1	-30.68	4.273
Cc1nc(Nc2nncs2)cc(C2CCCN2)n1.Cl (centres undefined)	-19.68	7.969
O=C(O)C(F)(F)F.[H][C@@]12CCCO[C@]1([H])[C@H](NS(C)(=O)=O)CN(Cc1ccc(OC)cc1)C2	4.163	-1.282
COc1ccc(Br)cc1CC(=O)Nc1cc(C)n[nH]1	-31.62	-17.43
CC(C)COCC(NC(=O)c1cccnc1)c1ccco1 (centres undefined)	-11.12	5.112
O=C(O)C(F)(F)F.[H][C@]12CCN(C(=O)CC(C)(C)C)CC[C@@]1([H])S(=O)(=O)CCN2C	-52.64	-2.639
Cc1cnnn1Cc1nnn2c1CN(Cc1cccs1)CCC2.O=C(O)C(F)(F)F	-	-10.6
Cc1nn(C)c(C)c1C1CCCN1CCOc1ccccc1C#N (centres undefined)	-14.52	-5.294
Cc1cnn(CC2CN(CCCS(=O)(=O)N(C)C)CCO2)c1 (centres undefined)	-16.47	-5.549
COCC(=O)N1CCn2c(CN3CCN(C)CC3)cnc2C1.O=C(O)C(F)(F)F.O=C(O)C(F)(F)F	-4.207	-3.513
COc1ccc(Cl)cc1C(=O)NC(CC(=O)O)c1cccs1 (centres undefined)	-16.45	-4.518
CCN(CC)Cc1ccc(C(=O)NC2CCc3ccccc32)o1 (centres undefined)	-131.2	10.49
Cc1ccc(CC(=O)N2CCC(c3nnc4n3CCC4)CC2)cc1	-29.32	-1.248
Cc1cc2n(n1)CC(CNCc1ccc(N3CCOCC3)nc1)CN2 (centres undefined)	8.458	-13.29
[H][C@@]12C[C@@H](c3nnc(C)[nH]3)O[C@]1([H])CN(C(=O)c1cc(C)nn1CC)C2	-0.4623	0.6492
COCCNC(=O)c1ccnn1-c1ccc2ccccn12	-61.07	9.331
CCO[C@H]1C[C@@H](O)C12CCN(S(=O)(=O)c1ccccc1OC)CC2	-25.32	8.409
Cc1ccc(CCNC(=O)N2CCCC(Cc3nccn3C)C2)cn1 (centres undefined)	22.82	1.784
O=C(Cc1c[nH]c2ccccc12)N1CCN(C(=O)c2ccoc2)CC1	17.91	0.553
CN1CCN(C(=O)CCn2nnc3ccccc32)CC(C(N)=O)C1 (centres undefined)	-0.6316	12.25
COc1cccc2c1OCC(NCc1cnn(-c3ccccc3F)c1)C2 (centres undefined)	-38.5	0
CCCOCCn1ncc(N2CCc3ccccc3C2)cc1=O	8.075	0.04525
Cc1cccc(C2(NCCCS(C)(=O)=O)CCCC2)c1	3.079	12.82

From ChEMBL document CHEMBL3988442, “University of Dundee, Small-Polar-MMV Screening Library” (2021).